# Source: US20250304666A1
# Sequences of proteins named here, by UniProt entry; tags and fusion partners are left off. A change or cut given only in a name is not applied to a line headed by its entry.
# UniProt P08603: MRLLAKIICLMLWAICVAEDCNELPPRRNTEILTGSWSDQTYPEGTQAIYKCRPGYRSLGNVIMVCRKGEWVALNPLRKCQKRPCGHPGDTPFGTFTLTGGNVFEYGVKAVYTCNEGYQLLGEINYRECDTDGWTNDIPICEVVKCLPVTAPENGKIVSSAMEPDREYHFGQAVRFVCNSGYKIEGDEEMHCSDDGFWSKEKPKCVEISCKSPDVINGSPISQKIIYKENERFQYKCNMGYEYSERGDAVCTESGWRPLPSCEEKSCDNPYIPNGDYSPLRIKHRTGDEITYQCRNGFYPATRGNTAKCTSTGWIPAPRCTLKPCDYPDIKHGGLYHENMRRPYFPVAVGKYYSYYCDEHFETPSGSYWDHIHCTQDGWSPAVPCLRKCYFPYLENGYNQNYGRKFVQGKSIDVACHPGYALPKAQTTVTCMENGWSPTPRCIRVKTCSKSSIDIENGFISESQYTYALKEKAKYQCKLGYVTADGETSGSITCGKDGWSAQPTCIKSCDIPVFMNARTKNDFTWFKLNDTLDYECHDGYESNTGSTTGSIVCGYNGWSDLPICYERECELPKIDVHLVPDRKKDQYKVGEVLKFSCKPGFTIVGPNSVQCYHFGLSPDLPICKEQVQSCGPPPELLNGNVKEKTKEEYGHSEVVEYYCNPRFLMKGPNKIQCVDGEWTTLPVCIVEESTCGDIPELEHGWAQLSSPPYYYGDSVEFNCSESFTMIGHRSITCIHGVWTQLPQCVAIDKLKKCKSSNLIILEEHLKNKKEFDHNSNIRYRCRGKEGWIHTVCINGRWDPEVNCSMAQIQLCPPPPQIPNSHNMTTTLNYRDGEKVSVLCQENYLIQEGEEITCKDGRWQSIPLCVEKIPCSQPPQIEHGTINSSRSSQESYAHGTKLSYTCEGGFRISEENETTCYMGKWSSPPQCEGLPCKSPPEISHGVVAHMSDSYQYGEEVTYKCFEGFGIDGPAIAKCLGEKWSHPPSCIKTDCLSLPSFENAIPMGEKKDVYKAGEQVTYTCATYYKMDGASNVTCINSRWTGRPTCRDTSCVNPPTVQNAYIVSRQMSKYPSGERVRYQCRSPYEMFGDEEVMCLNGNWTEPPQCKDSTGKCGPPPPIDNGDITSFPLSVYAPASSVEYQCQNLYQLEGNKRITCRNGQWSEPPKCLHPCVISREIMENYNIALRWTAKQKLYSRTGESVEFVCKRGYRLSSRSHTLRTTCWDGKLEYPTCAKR
# No constants are given. Whether binding was seen depends on the method and setting. Some entries that bind do so weakly or less than the wild type.
# Tests used:
# [1] = biological target: reduced CFH (Homo sapiens (Human)) (UniProt P08603); assay: ELISA on reduced CFH
# [2] = biological target: reduced CFH (Homo sapiens (Human)) (UniProt P08603); assay: ELISA on 0.2 ug/ml reduced CFH after mAb 70 C 1 hour
binder,measurement,setting,value
"ATL_0004715 (antibody, human IgG1, kappa, V domains shown) VH: EVQLVESGGGVVQPGRSLRLSCAASGFTFSRYGMHWVRQAPGKGLEWVAVMSYDGSTKYYADSVKGRFAISRDNPKNTLFLQMNSLRPDDTAVYYCAKGGAAAAVMDVWGKGTTVTVSS VL: DIVMTQSPDSLTVSLGERATISCKSSQRLLYSSNNKNYLAWYQQKPGQPPKLLMYWASTRESGVPDRFSGSGSGTDFSLTISSLQAEDVAVYYCQQYYNPPWTFGQGTKVEVKR",binding,[1],binds
same,binding,[2],binds
